This series is described as follows: Debittering studies: sensorial taste testing by eight panelists (preference / non-preference for consumption). Type of series: in vivo, human. The note with it: preference (like) or non-preference (dislike) for consumption.

SMILES strings stand for the structures. No dose or concentration is given here for some results.

As to `COc1cc(/C=C/c2ccc(O)cc2)cc(OC)c1.Cn1c(=O)c2c(ncn2C)n(C)c1=O` [CA:PB, Caffeine: Pterostilbene], the Preference entry runs as follows: (Panelist-1) “Yes”; (Panelist-2) “Yes”; (Panelist-3) “Yes”; (Panelist-4) “Yes”; (Panelist-5) “Yes”; (Panelist-6) “Yes”. The Preference result is listed as “Yes” (Panelist-7) and “Yes” (Panelist-8).
For the compound `Cn1c(=O)[nH]c2ncn(C)c2c1=O` [PX, Paraxanthine, reference compound], the Preference entry by setting is: (Panelist-1) “No”; (Panelist-2) “No”; (Panelist-3) “No”; (Panelist-4) “No”; (Panelist-5) “No”; (Panelist-6) “No”. Also, the Preference result was “No” (Panelist-7) and “No” (Panelist-8).
`Cn1c(=O)c2[nH]cnc2n(C)c1=O.Oc1ccc(/C=C/c2cc(O)cc(O)c2)cc1` [TP:RS, Theophylline: Resveratrol (1:1) Cocrystal]: the Preference entry is, setting by setting: (Panelist-1) “Yes”; (Panelist-2) “Yes”; (Panelist-3) “Yes”; (Panelist-4) “Yes”; (Panelist-5) “Yes”; (Panelist-6) “Yes”. Also, the Preference entry by setting is: (Panelist-7) “Yes”; (Panelist-8) “Yes”.
In the case of `Cn1cnc2c1c(=O)[nH]c(=O)n2C` [TB, Theobromine, reference compound], the Preference result is, setting by setting: (Panelist-1) “No”; (Panelist-2) “No”; (Panelist-3) “No”; (Panelist-4) “No”; (Panelist-5) “No”; (Panelist-6) “No”. Further, the Preference result is, setting by setting: (Panelist-7) “No”; (Panelist-8) “No”.
With `COc1nc2c(c(=O)n1C)n(C)c(=O)n2C` [ML, Methylliberine, reference compound], the Preference result by setting is: (Panelist-1) “No”; (Panelist-2) “No”; (Panelist-3) “No”; (Panelist-4) “No”; (Panelist-5) “No”; (Panelist-6) “No”. Moreover, the Preference entry is “No” (Panelist-7) and “No” (Panelist-8).
`COc1cc(/C=C/c2ccc(O)cc2)cc(OC)c1.Cn1c(=O)c2c(n(C)c1=O)n(C)c(=O)n2C` [TC:PB, Theacrine: Pterostilbene]: the Preference entry was “Yes” (Panelist-1); “Yes” (Panelist-2); “Yes” (Panelist-3); “Yes” (Panelist-4); “Yes” (Panelist-5); “Yes” (Panelist-6). Also, the Preference entry by setting is: (Panelist-7) “Yes”; (Panelist-8) “Yes”.
For `COc1cc(/C=C/c2ccc(O)cc2)cc(OC)c1.Cn1cnc2c1c(=O)[nH]c(=O)n2C` [TB:PB, Theobromine: Pterostilbene (1:1) Cocrystal], the Preference result reads like this: (Panelist-1) “Yes”; (Panelist-2) “Yes”; (Panelist-3) “Yes”; (Panelist-4) “Yes”; (Panelist-5) “Yes”; (Panelist-6) “Yes”. Further, the Preference result runs as follows: (Panelist-7) “Yes”; (Panelist-8) “Yes”.
`Cn1c(=O)c2[nH]cnc2n(C)c1=O` [TP, Theophylline, reference compound]: the Preference entry is, setting by setting: (Panelist-1) “No”; (Panelist-2) “No”; (Panelist-3) “No”; (Panelist-4) “No”; (Panelist-5) “No”; (Panelist-6) “No”. The Preference entry was “No” (Panelist-7) and “No” (Panelist-8).
As to `Cn1c(=O)c2c(n(C)c1=O)n(C)c(=O)n2C` [TC, Theacrine, reference compound], the Preference result is “No” (Panelist-1); “No” (Panelist-2); “No” (Panelist-3); “No” (Panelist-4); “No” (Panelist-5); “No” (Panelist-6). Further, the Preference entry runs as follows: (Panelist-7) “No”; (Panelist-8) “No”.
Take `COc1cc(/C=C/c2ccc(O)cc2)cc(OC)c1.Cn1c(=O)[nH]c2ncn(C)c2c1=O` [PX:PB, Paraxanthine: Pterostilbene (1:1) Cocrystal]: the Preference result (Panelist-1) is “Yes”; the Preference result (Panelist-2) is “Yes”; the Preference result (Panelist-3) is reported as “Yes”; the Preference result (Panelist-4) was “Yes”; the Preference entry (Panelist-5) is “Yes”; the Preference result (Panelist-6) is recorded as “Yes”. The Preference entry (Panelist-7) was “Yes” and the Preference result (Panelist-8) is on record as “Yes”.
With `COc1cc(/C=C/c2ccc(O)cc2)cc(OC)c1.COc1nc2c(c(=O)n1C)n(C)c(=O)n2C` [ML:PB, Methylliberine: Pterostilbene], the Preference result is reported as “Yes” (Panelist-1); “Yes” (Panelist-2); “Yes” (Panelist-3); “Yes” (Panelist-4); “Yes” (Panelist-5); “Yes” (Panelist-6). Further, the Preference result runs as follows: (Panelist-7) “Yes”; (Panelist-8) “Yes”.
Take `Cn1c(=O)c2c(ncn2C)n(C)c1=O` [CA, Caffeine, reference compound]: the Preference result (Panelist-1) was “No”; the Preference result (Panelist-2) was “No”; the Preference result (Panelist-3) was “No”; the Preference entry (Panelist-4) is “No”; the Preference entry (Panelist-5) is “No”; the Preference entry (Panelist-6) is “No”. Further, the Preference entry runs as follows: (Panelist-7) “No”; (Panelist-8) “No”.
